Measurements reported in PubChem BioAssay AID686943 (Drosophila RNAi Screening Center, 2013)

Test: 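Knockdowns that increase or decrease active ERK after insulin receptor stimulation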 (primary screen)
System: Drosophila S2R+ haemocyte-like cells expressing YFP-tagged ERK (Rolled)
Knock-down reagent: long dsRNA against Drosophila genes
Conditions: insulin stimulation versus unstimulated cells; dose and duration not given
Detection: 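Antibody staining for doubly phosphorylated ERK divided by ERK-YFP signal, as plate z-scores, in insulin-treated and untreated cells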
Reading the numbers: replicate 1, z-score of dpERK with insulin: higher = more active ERK per ERK-YFP after insulin
The deposit covers about 23,000 reagents; this is a random part of those with a known target gene and a result. 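Extra replicates exist only for a retested subset of genes; insulin dose and duration not given; both raised and lowered dpERK matter.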 Further read-outs or replicates are left out here. Reagent sequences are not shown. Not stated in the record: the amount of reagent, the time to read-out.

{"Gene":"eIF6","DRSC id":"DRSC04674","replicate 1, z-score of dpERK with insulin":0.47}
{"Gene":"NtR","DRSC id":"DRSC04628","replicate 1, z-score of dpERK with insulin":-0.74}
{"Gene":"Tab2","DRSC id":"DRSC07481","replicate 1, z-score of dpERK with insulin":0.28}
{"Gene":"Ulp1","DRSC id":"DRSC19339","replicate 1, z-score of dpERK with insulin":0.69}
{"Gene":"CG31446","DRSC id":"DRSC13111","replicate 1, z-score of dpERK with insulin":-0.34}
{"Gene":"slgA","DRSC id":"DRSC20586","replicate 1, z-score of dpERK with insulin":-0.18}
{"Gene":"lncRNA:iab8","DRSC id":"DRSC13187","replicate 1, z-score of dpERK with insulin":0.62}
{"Gene":"lncRNA:iab8","DRSC id":"DRSC22252","replicate 1, z-score of dpERK with insulin":-2.98}
{"Gene":"jdp","DRSC id":"DRSC16975","replicate 1, z-score of dpERK with insulin":-0.11}
{"Gene":"SmD3","DRSC id":"DRSC07553","replicate 1, z-score of dpERK with insulin":2.09}
{"Gene":"CG3744","DRSC id":"DRSC15511","replicate 1, z-score of dpERK with insulin":0.04}
{"Gene":"Tsp42El","DRSC id":"DRSC06186","replicate 1, z-score of dpERK with insulin":0.48}
{"Gene":"CG1738","DRSC id":"DRSC19772","replicate 1, z-score of dpERK with insulin":-0.08}
{"Gene":"GlcT","DRSC id":"DRSC04525","replicate 1, z-score of dpERK with insulin":0.6}
{"Gene":"PI31","DRSC id":"DRSC07306","replicate 1, z-score of dpERK with insulin":0.06}
{"Gene":"CG2961","DRSC id":"DRSC18246","replicate 1, z-score of dpERK with insulin":0.41}
{"Gene":"Glo1","DRSC id":"DRSC06657","replicate 1, z-score of dpERK with insulin":-0.72}
{"Gene":"CG34163","DRSC id":"DRSC01219","replicate 1, z-score of dpERK with insulin":-0.39}
{"Gene":"CG16964","DRSC id":"DRSC02546","replicate 1, z-score of dpERK with insulin":-0.44}
{"Gene":"CG18179","DRSC id":"DRSC10303","replicate 1, z-score of dpERK with insulin":0.81}
{"Gene":"Ubx","DRSC id":"DRSC16891","replicate 1, z-score of dpERK with insulin":0.59}
{"Gene":"Mct1","DRSC id":"DRSC18681","replicate 1, z-score of dpERK with insulin":-0.29}
{"Gene":"CG16789","DRSC id":"DRSC15155","replicate 1, z-score of dpERK with insulin":0.25}
{"Gene":"Arpc4","DRSC id":"DRSC02917","replicate 1, z-score of dpERK with insulin":-1.96}
{"Gene":"Ufc1","DRSC id":"DRSC07156","replicate 1, z-score of dpERK with insulin":0.01}
{"Gene":"Pde9","DRSC id":"DRSC19746","replicate 1, z-score of dpERK with insulin":0.27}
{"Gene":"Pde9","DRSC id":"DRSC19874","replicate 1, z-score of dpERK with insulin":1.22}
{"Gene":"Pde9","DRSC id":"DRSC19875","replicate 1, z-score of dpERK with insulin":-0.01}
{"Gene":"Pde9","DRSC id":"DRSC19876","replicate 1, z-score of dpERK with insulin":0.18}
{"Gene":"Rpp30","DRSC id":"DRSC00320","replicate 1, z-score of dpERK with insulin":0.28}
{"Gene":"CG32110","DRSC id":"DRSC09220","replicate 1, z-score of dpERK with insulin":-0.42}

Targets listed so far whose target name starts with U or u:
{"Gene":"Ulp1","DRSC id":"DRSC19339","replicate 1, z-score of dpERK with insulin":0.69}
{"Gene":"Ubx","DRSC id":"DRSC16891","replicate 1, z-score of dpERK with insulin":0.59}
{"Gene":"Ufc1","DRSC id":"DRSC07156","replicate 1, z-score of dpERK with insulin":0.01}
